Results as given in patent US10954549B2, “Detection and classification of an anticoagulant using a clotting assay” (Haemonetics Corporation, priority 2014, dated 2021).
Some of these results come from one statement about several compounds together.

Experiments:
[1] = about two half-lives; cited from earlier work
citrated whole blood = experiment: TEG kaolin with ecarin test of spiked blood; format: biochemical, human; settings: hypercoagulable range
Description: The TEG clotting assay was used to determine if low, normal, and high doses of dabigatran, rivaroxaban, and apixaban could be detected in blood spiked with these compounds. Three oral anticoagulants (OAC), namely dabigatran, rivaroxaban, and apixaban, were spiked into blood obtained from 14 healthy volunteer human donors. For each OAC tested, citrated blood from three donors was spiked with three different concentrations of the active drug (i.e., the compound). The spiked blood samples and control samples spiked with diluent were tested with the TEG® 5000 Thrombelastograph® Hemostasis Analyzer (Haemonetics Corporation, Braintree, Mass., USA) using the Kaolin and RapidTEG® reagents (Haemonetics). Each sample was run in triplicate. All samples were tested with and without ecarin (purchased from Enzyme Research Laboratories, South Bend, IN). This study was IRB approved and all donors were over 18 and signed informed consent forms.
For the kaolin test, 1 mL of citrated blood sample was mixed with kaolin and 340 microliters (μL) of this blood was added to a TEG cup containing 20 μL of 0.2M CaCl2 for recalcification. The kaolin with ecarin test was performed in a similar fashion, using 20 μL of an ecarin/CaCl2 solution (0.16 M CaCl2; 19 EU/mL ecarin).
Ecarin is derived from the venom of the saw-scaled viper, Echis carinatus. Ecarin activates prothrombin (the precursor of thrombin—see FIG. 5). […]

[2] = tested on: blood from healthy volunteers; experiment: Thromboelastography R time of spiked blood in the presence of the FXa reagent; format: biochemical, human; settings: 100 ng/ml of drug in the blood component
Method: Blood from healthy volunteers known not to be taking any oral anticoagulant and without any other significant health issues are analyzed using the FXa or the Ecarin reagent in a TEG® hemostasis analyzer. The FXa reagent (i.e., the Factor Xa reagent) is used to detect the presence (or absence) of an anticoagulant in the blood component being tested. In absence of any oral anticoagulant, the FXa reagent will accelerate the clotting process and result in a very short R-time. In presence of direct thrombin inhibitors and/or anti-Factor Xa anticoagulant(s), the process is slowed down and will cause elongation of the R-time. This difference in R-time is utilized to detect the presence of the oral anticoagulant. The R-time generated from multiple donors was used to construct a reference range. Blood was spiked with either direct thrombin inhibitors or anti-Xa(s) at different concentrations and analyzed using the FXa reagent or the Ecarin reagent. The drug concentrations chosen represent the published therapeutic ranges for these two classes of drugs. This assay was repeated in multiple donors to account for possible donor variations.

| Structure (SMILES) | persistence of anticoagulant effect after the last dose [1] | R values, kaolin test with ecarin (citrated whole blood) | R time raised above the reference range of approximately 1.8 minutes [2] |
| --- | --- | --- | --- |
| COc1ccc(-n2nc(C(N)=O)c3c2C(=O)N(c2ccc(N4CCCCC4=O)cc2)CC3)cc1 [apixaban, Apixaban] | 10 to 30 h | < 5 min | at least 1.25 times |
| O=C(NC[C@H]1CN(c2ccc(N3CCOCC3=O)cc2)C(=O)O1)c1ccc(Cl)s1 [rivaroxaban, Rivaroxaban] | 10 to 30 h | < 5 min | at least 1.25 times |
